Data taken from publication PMC12199517.
Results are given in words; binding and its absence hold for the method and conditions named. In cells and extracts the contact can be indirect. Here binding means that the protein was enriched with, or labelled near, the bait; the list need not be complete. Blank lines part the entries; values can stand above or below the molecule they belong to.

Chains of the proteins cited; added tags and fusions are not shown.
UniProt Q8C6M1: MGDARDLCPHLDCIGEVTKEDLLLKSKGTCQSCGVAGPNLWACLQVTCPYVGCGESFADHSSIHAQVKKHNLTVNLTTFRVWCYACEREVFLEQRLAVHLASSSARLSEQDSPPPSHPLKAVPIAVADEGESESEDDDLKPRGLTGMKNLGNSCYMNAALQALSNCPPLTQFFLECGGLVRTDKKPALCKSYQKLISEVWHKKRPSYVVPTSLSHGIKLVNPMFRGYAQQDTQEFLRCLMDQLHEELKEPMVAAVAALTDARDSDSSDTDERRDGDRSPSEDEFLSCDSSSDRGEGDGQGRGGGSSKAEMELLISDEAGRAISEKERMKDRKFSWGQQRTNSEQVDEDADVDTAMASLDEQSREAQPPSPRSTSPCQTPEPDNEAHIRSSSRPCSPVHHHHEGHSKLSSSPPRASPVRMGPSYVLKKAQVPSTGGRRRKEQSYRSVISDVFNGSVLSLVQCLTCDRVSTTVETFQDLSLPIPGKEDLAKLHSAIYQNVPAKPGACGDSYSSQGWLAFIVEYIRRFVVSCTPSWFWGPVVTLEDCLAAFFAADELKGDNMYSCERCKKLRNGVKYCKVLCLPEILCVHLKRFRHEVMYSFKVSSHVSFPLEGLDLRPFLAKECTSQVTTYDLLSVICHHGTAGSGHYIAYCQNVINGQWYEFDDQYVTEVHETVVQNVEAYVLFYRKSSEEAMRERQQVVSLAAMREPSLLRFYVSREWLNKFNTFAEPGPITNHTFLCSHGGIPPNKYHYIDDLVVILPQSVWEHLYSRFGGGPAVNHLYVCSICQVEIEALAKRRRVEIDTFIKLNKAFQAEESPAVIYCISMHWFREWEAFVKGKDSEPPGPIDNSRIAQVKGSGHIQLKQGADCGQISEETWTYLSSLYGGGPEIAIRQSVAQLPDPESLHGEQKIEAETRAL
UniProt P42227: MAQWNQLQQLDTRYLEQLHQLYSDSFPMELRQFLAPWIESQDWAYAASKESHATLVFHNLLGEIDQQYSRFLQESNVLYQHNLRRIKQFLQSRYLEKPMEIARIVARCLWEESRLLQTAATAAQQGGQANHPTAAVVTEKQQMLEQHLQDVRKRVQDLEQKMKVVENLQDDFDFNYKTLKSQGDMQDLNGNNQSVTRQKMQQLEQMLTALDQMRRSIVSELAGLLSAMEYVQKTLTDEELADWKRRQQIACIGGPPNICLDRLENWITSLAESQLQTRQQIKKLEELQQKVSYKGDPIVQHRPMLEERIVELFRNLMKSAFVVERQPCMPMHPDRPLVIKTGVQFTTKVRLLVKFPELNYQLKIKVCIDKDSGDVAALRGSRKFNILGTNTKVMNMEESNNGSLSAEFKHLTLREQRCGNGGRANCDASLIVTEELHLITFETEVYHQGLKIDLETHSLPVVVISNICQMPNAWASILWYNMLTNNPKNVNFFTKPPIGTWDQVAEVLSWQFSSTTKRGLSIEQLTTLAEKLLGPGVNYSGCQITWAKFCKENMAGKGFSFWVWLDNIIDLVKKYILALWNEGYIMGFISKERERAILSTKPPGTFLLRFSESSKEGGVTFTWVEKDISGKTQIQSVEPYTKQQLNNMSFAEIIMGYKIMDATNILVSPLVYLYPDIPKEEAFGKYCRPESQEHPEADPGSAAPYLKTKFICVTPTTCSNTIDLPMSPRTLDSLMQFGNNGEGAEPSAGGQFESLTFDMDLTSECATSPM

How the values were obtained:
[1] = target: Flag‐USP20 (ubiquitin‐specific protease 20) (UniProt Q8C6M1); experiment: affinity purification with mass spectrometry; Dataset I: HL‐1 cells transfected with Flag‐vector or Flag‐USP20, Ang II 1 µmol for 24 h; Co‐IP then LC‐MS/MS; proteins with a fold change greater than 2.0
[2] = target: USP20, endogenous in mouse heart tissue (mouse (endogenous in heart tissue)) (UniProt Q8C6M1); experiment: affinity purification with mass spectrometry; Dataset II: lysed heart tissues from Ang II‐induced mice, divided into two portions; Co‐IP of USP20 then LC‐MS/MS; proteins with a fold change greater than 2.0

binding [1]: binds
binding [2]: binds
Molecule: STAT3, endogenous in mouse heart tissue and HL‐1 cells (from UniProt P42227 1-770)

binding [1]: binds
binding [2]: binds
B1: XRRA1 (protein, UniProt Q3U3V8 1-786)
chain: MVSSGMYKMDNGKPCLNNCFPAKSLLRLPEEGRGHWIVVRKGSMKKGAAKASTEGQESQKKVSFDTGLKKISRRDSQADVLGHILDRSFLLKHHSARKPSDLCTINVSGMKFSKAKEKDFKHFTSVIYINASENLLPLDVFHTFPVLKELELAFNGIKMVYVKYGDFKTLEFLDLSFNSLTEEAICDLGILPHLRVLLLTGNGLTSLPPNMAVKEQEASMTSLTSKKYILRFPALETLMLDDNKLSNPSCFASLAGLRRLKKLSLDQNKIVRIPYLQQIQLRDGSGDWVTEGPNPQKELQPQMWIFETPDEQPNYTVLPMKKDVDRTEVVFSSYPGFSTSETAKVCSLPPMFEILPVKSLKARNQTLAPPFPELRYLSLAYNKIAKEDAVLPAALFPSLCELVFHNNPLVAHTRGIPPLLKSFLQDRLGIRLVRKKLVKPKHHMLMPRKESRKVKTYIPKVPKHSLVPHHLNMITDSPPSSLMPEPEHSTEDTSHEALFANEGPEGPSLTHRAFVPMPPICSDSTVHSEAVSHQSHTAGLVSSEHPSDDDAKSTESIFLTQVNELPSSTAHRENLEAVNDQRRPSTAPRETKRTRRKQTATSLHNKYDGYEELLTVKPDPAFLEPKGIQKNAQALHRMLKQPLICRSSKPRLDTFQKPYVPKEKRAGRIPILPPRKTRAQLLDDILIRMRDPRNVTEAPLGTVLQRRAQQRLVNQKQYREAKRLLKEFRARYRQLVRSSLRTVFAASPPPRPPTRRALSAGQPKLGRFLEFMDEFCQEPTASDSKE
